From paper PMC2270346 come the findings set out here.

Chains of the proteins cited; added tags and fusions are not shown. Residues count along the entry.
UniProt P27467, residues 19-352: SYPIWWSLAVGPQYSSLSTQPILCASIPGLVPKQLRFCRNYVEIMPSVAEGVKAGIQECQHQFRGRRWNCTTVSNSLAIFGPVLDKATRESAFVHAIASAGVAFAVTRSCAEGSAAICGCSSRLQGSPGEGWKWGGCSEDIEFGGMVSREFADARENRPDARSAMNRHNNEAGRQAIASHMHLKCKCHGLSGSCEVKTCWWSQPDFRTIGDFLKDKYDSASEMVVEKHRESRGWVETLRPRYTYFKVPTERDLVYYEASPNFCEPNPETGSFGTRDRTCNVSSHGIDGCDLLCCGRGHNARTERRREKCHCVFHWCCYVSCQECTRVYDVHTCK

No constants are given. Whether binding was seen depends on the method and setting. Binding seen in cells or lysates may run through a third protein. Some binding calls cover weakened binding; strength is not graded here.

The target in the test is mouse Wnt3a, His-tagged (mouse) (UniProt P27467). The experiment in a line: co-IP; as a2; the synthetic peptide RH3 added to the culture media of the transfected cells as competitor; only the binder purified.

For AWGRFLHTNCHPFLA [synthetic peptide RH3 from V3Nter CRD], the binding result is “binds”.
